Measured values published in US20180200324A1, “ARTIFICIAL PEPTIDES AND USE THEREOF FOR GLYCOGEN STORAGE DISORDERS” (HADASIT MEDICAL RESEARCH SERVICES AND DEVELOPMENT LTD., priority 2015, published 2018).
Some of these results come from one statement about several compounds together. Peptide text beside a SMILES is read from it.

Target: T1, GBE1 (p.Y329S mutant) (Homo sapiens, UniProt Q04446, Y329S)
T1 construct: endogenous in cells; host or cells: peripheral blood mononuclear cells (PBMCs) isolated from an APBD patient
T1 sequence (Q04446 1-702 Y329S): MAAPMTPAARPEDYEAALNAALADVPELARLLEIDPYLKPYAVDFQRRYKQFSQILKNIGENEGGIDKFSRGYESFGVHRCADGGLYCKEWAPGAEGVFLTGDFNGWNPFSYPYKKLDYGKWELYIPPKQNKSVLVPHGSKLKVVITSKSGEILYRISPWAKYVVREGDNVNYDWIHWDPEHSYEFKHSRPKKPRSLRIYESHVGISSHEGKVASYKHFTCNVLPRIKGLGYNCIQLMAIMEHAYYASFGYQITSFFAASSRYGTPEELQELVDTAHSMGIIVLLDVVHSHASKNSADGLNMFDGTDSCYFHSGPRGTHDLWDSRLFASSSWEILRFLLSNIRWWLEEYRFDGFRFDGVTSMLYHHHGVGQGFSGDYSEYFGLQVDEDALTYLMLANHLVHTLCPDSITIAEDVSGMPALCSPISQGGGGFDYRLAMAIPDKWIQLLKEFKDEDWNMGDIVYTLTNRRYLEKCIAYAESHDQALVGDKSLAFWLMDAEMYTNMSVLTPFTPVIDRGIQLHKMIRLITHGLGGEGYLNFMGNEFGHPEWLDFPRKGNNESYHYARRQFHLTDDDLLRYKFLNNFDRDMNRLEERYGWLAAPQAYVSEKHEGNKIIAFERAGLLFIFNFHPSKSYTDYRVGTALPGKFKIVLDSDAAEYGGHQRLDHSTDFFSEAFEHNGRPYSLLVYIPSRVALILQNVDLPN
Assay: GBE activity in isolated PBMCs from an APBD patient (Y329S)
Type: cell-based
Conditions: FIG. 6C
Experimental: Upon establishment of competitive binding of the HRP-anti FITC antibody by the standard curve, the following cells were incubated with 316 nM LTKE peptide (SEQ ID NO: 1): • PBMCs isolated from APBD patients were incubated with FITC-labeled LTKE peptides at 37° C. (FIG. 6A, filled square) or 4° C. (FIG. 6A, empty squares). At the indicated times intracellular peptide uptake was determined by flow cytometry (FIG. 6A). • Isolated PBMCs from an APBD patient (Y329S), or a control subject (WT) were incubated overnight with or without the peptides indicated (20 μM). Lysed cells were subjected to SDS-PAGE and immunoblotting with anti-GBE1 and anti-α-tubulin (loading control) antibodies (FIG. 6B). • Isolated PBMCs were assayed for GBE activity (FIG. 6C).
To confirm that the peptide is internalized into cells, its sensitivity to uptake temperature in peripheral blood mononuclear cells (PBMCs) was determined.

CC(C)C[C@H](N)C(=O)N[C@H](C(=O)N[C@@H](CCCCN)C(=O)N[C@@H](CCC(=O)O)C(=O)O)[C@@H](C)O [LTKE, Leu-Thr-Lys-Glu] (H-LTKE-OH; C-terminus assumed)
GBE1 activity relative to unaffected control: > 15 % of unaffected control
